Earlier results as cited in patent publication US20120095059A1, “Compositions and Methods for Treating Type II Diabetes and Related Disorders” (priority 2010, published 2012).
At least one structure is not confirmed: it was looked up by name or label, or the drawing left a doubt.

Tested on: patients with type 2 diabetes mellitus
Details: monotherapy; Rosenstock et al., Diabetes Care 25:1529-1533 (2002); cited from earlier work

## Cc1c(C)c2c(c(C)c1O)CCC(C)(COc1ccc(CC3SC(=O)NC3=O)cc1)O2 (stereo not shown) [troglitazone]
  reduction in HbA1c: 0.8%
